{"source": "PubChem BioAssay AID1259425 (University of Nebraska Medical Center, 2018)", "test": "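Find knockdowns that reproduce the gene expression pattern seen when KSR1 is lost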 (primary screen)", "cells": "HCT116 human colon cancer cells", "reagent": "siRNA pool against human genes, 50 nM siRNA", "measurement": "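After 50 nM siRNA pool, branched-DNA assay measures six marker transcripts per well, minus blank, normalised to the geometric mean of two housekeeping transcripts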", "scale": "BNIP3L mRNA: higher = more BNIP3L transcript after knockdown; NDRG1 mRNA: higher = more NDRG1 transcript after knockdown", "note": "Here is a random part of about 14,000 deposited reagents. Further read-outs or replicates are left out here. Not given: the time to read-out."}
{"gene knocked down":"MRPL2 (GeneID 51069)","PubChem SID":"SID363999745","BNIP3L mRNA, set 1":0.136,"NDRG1 mRNA, set 1":2.12}
{"gene knocked down":"THUMPD2 (GeneID 80745)","PubChem SID":"SID364003355","BNIP3L mRNA, set 1":0.0818,"NDRG1 mRNA, set 1":0.156}
{"gene knocked down":"DACT1 (GeneID 51339)","PubChem SID":"SID364000264","BNIP3L mRNA, set 1":0.132,"NDRG1 mRNA, set 1":0.164}
{"gene knocked down":"LMCD1 (GeneID 29995)","PubChem SID":"SID363998955","BNIP3L mRNA, set 1":0.0943,"NDRG1 mRNA, set 1":0.0587}
{"gene knocked down":"CTF1 (GeneID 1489)","PubChem SID":"SID363992610","BNIP3L mRNA, set 1":0.0794,"NDRG1 mRNA, set 1":0.0947}
{"gene knocked down":"CRTC3 (GeneID 64784)","PubChem SID":"SID364002543","BNIP3L mRNA, set 1":0.107,"NDRG1 mRNA, set 1":0.122}
{"gene knocked down":"FASTK (GeneID 10922)","PubChem SID":"SID363997492","BNIP3L mRNA, set 1":0.15,"NDRG1 mRNA, set 1":0.0809}
{"gene knocked down":"RNF6 (GeneID 6049)","PubChem SID":"SID363996834","BNIP3L mRNA, set 1":0.0677,"NDRG1 mRNA, set 1":0.113}
{"gene knocked down":"VAMP2 (GeneID 6844)","PubChem SID":"SID363998671","BNIP3L mRNA, set 1":0.312,"NDRG1 mRNA, set 1":0.464}
{"gene knocked down":"PACSIN3 (GeneID 29763)","PubChem SID":"SID363999961","BNIP3L mRNA, set 1":0.137,"NDRG1 mRNA, set 1":0.154}
{"gene knocked down":"DCAF4 (GeneID 26094)","PubChem SID":"SID363999599","BNIP3L mRNA, set 1":0.212,"NDRG1 mRNA, set 1":0.211}
{"gene knocked down":"ASAP3 (GeneID 55616)","PubChem SID":"SID364000459","BNIP3L mRNA, set 1":0.0764,"NDRG1 mRNA, set 1":0.159}
{"gene knocked down":"THOP1 (GeneID 7064)","PubChem SID":"SID363994370","BNIP3L mRNA, set 1":0.0992,"NDRG1 mRNA, set 1":0.776}
{"gene knocked down":"RAE1 (GeneID 8480)","PubChem SID":"SID363994688","BNIP3L mRNA, set 1":0.133,"NDRG1 mRNA, set 1":0.327}
{"gene knocked down":"OR1C1 (GeneID 26188)","PubChem SID":"SID364005389","BNIP3L mRNA, set 1":0.119,"NDRG1 mRNA, set 1":0.119}
{"gene knocked down":"C1GALT1 (GeneID 56913)","PubChem SID":"SID364001515","BNIP3L mRNA, set 1":0.252,"NDRG1 mRNA, set 1":0.247}
{"gene knocked down":"CRIP1 (GeneID 1396)","PubChem SID":"SID363992593","BNIP3L mRNA, set 1":0.173,"NDRG1 mRNA, set 1":0.121}

Next part; the last 4 above are carried over.
{"gene knocked down":"RAE1 (GeneID 8480)","PubChem SID":"SID363994688","BNIP3L mRNA, set 1":0.133,"NDRG1 mRNA, set 1":0.327}
{"gene knocked down":"OR1C1 (GeneID 26188)","PubChem SID":"SID364005389","BNIP3L mRNA, set 1":0.119,"NDRG1 mRNA, set 1":0.119}
{"gene knocked down":"C1GALT1 (GeneID 56913)","PubChem SID":"SID364001515","BNIP3L mRNA, set 1":0.252,"NDRG1 mRNA, set 1":0.247}
{"gene knocked down":"CRIP1 (GeneID 1396)","PubChem SID":"SID363992593","BNIP3L mRNA, set 1":0.173,"NDRG1 mRNA, set 1":0.121}
{"gene knocked down":"HNRNPA2B1 (GeneID 3181)","PubChem SID":"SID363993341","BNIP3L mRNA, set 1":0.0197,"NDRG1 mRNA, set 1":0.0869}
{"gene knocked down":"LEPROTL1 (GeneID 23484)","PubChem SID":"SID363999430","BNIP3L mRNA, set 1":0.0902,"NDRG1 mRNA, set 1":0.0997}
{"gene knocked down":"SMG6 (GeneID 23293)","PubChem SID":"SID364000370","BNIP3L mRNA, set 1":0.0655,"NDRG1 mRNA, set 1":0.348}
{"gene knocked down":"GPR52 (GeneID 9293)","PubChem SID":"SID363996574","BNIP3L mRNA, set 1":0.241,"NDRG1 mRNA, set 1":0.194}
{"gene knocked down":"POLR1G (GeneID 10849)","PubChem SID":"SID363998048","BNIP3L mRNA, set 1":0.0764,"NDRG1 mRNA, set 1":0.259}
{"gene knocked down":"MMP15 (GeneID 4324)","PubChem SID":"SID363993606","BNIP3L mRNA, set 1":0.155,"NDRG1 mRNA, set 1":0.842}
{"gene knocked down":"ATOH1 (GeneID 474)","PubChem SID":"SID363996099","BNIP3L mRNA, set 1":0.14,"NDRG1 mRNA, set 1":0.346}
{"gene knocked down":"AP1G2 (GeneID 8906)","PubChem SID":"SID363994973","BNIP3L mRNA, set 1":0.104,"NDRG1 mRNA, set 1":0.191}
{"gene knocked down":"ZRANB2 (GeneID 9406)","PubChem SID":"SID363996361","BNIP3L mRNA, set 1":0.0942,"NDRG1 mRNA, set 1":0.117}
{"gene knocked down":"BRCA2 (GeneID 675)","PubChem SID":"SID363991396","BNIP3L mRNA, set 1":0.111,"NDRG1 mRNA, set 1":0.0762}
{"gene knocked down":"COL4A6 (GeneID 1288)","PubChem SID":"SID363993061","BNIP3L mRNA, set 1":0.0747,"NDRG1 mRNA, set 1":0.105}
